The target of assay [1] is purified MST2 recombinant protein. Briefly: MST; Monolith NT.115, 25 °C, fluorescent-labeled protein; STRN3 and MST2 in the presence of CX; both purified.
For assay [2] the target is unchanged. Nature of the assay: AlphaScreen or HTRF; purified STRN3 and MST2 recombinant proteins against the same compound library, two rounds; which protein was on which bead is not told; both purified.

Results are given in words; binding and its absence hold for the method and conditions named. For some assays here: Binding calls can cover weak binding; strength is not graded here.

B1: STRN3 (64–145) (domain or fragment, UniProt Q13033 64-145, looked up)
chain: TIPGILHYIQHEWARFEMERAHWEVERAELQARIAFLQGERKGQENLKKDLVRRIKMLEYALKQERAKYHKLKYGTELNQGD
notes: STRN3 (striatin-3), amino acid 64-145
In the case of B1, the binding entry in assay [1] is on record as “no binding (only in the presence of CX)”; in assay [2], “binds”.

Source of the values: paper PMC11126936, “Reactivating Hippo by drug compounds to suppress gastric cancer and enhance chemotherapy sensitivity” (The Journal of Biological Chemistry, 2024).
